From patent US9458195B2 (Ipsen Pharma S.A.S., priority 2005, dated 2016)
Bridges are numbered along the chain shown (N, C = ends). Where no end group is shown, it is not given here. [ ]: non-standard residue; d: D form. 2Nal = N[C@@H](Cc1ccc2ccccc2c1)C(=O)O; d2Nal = N[C@H](Cc1ccc2ccccc2c1)C(=O)O; Cha = N[C@@H](CC1CCCCC1)C(=O)O; Pen = CC(C)(S)[C@H](N)C(=O)O; Nle = CCCC[C@H](N)C(=O)O; GABA = NCCCC(=O)O

Assay: general procedure: Fmoc solid-phase peptide synthesis; Rink Amide MBHA resin (0.58 mmol/g); Wang resin for C-terminal OH; MBHA resin (0.91 mmol/g) for Boc chemistry; DIC/HOBt, double-coupling with HBTU/HOBt/DIEA; HBTU/DIEA (Boc)
Details: whole synthesis, scale of the general procedure 0.035 mmol, 0.20 mmol

In the case of “Ac-Nle-c(Cys-D-Ala-His-D-Phe-Arg-Trp-Cys)-NH2”, the “purity (crude or final not stated)” value is reported as 98.3%.

Assay: peptide synthesis
Details: whole synthesis

“Ac-D-Cha-c(Asp-His-D-Phe-Arg-Trp-Gaba-Lys)-NH2” and “Ac-D-Chg-c(Asp-His-D-Phe-Arg-Trp-Gaba-Lys)-NH2” are the same in “purity (crude or final not stated)” value: 99% for the first, 99% for the second.

First: Ac-D-Phe-c(Asp-His-D-Phe-Arg-Trp-Gaba-Lys)-NH2
Second: Ac-D-hCha-c(Asp-His-D-Phe-Arg-Trp-Gaba-Lys)-NH2
The “purity (crude or final not stated)” value of the first is higher: 96.5% for the first, 94% for the second.

First: Ac-FDH[dF]RW[GABA]K-NH2 (lactam 2-8)
Second: Ac-Gaba-c(Asp-His-D-Phe-Arg-Trp-Gaba-Lys)-NH2
The “purity (crude or final not stated)” value of the first is higher: 96.9% for the first, 92.5% for the second.

Compared with Ac-ICH[dF]RW[GABA]C-NH2 (disulfide 2-8), Ac-LCH[dF]RW[GABA]C-NH2 (disulfide 2-8) is higher in “purity (crude or final not stated)” value: 95% for the first, 96.7% for the second.

First: Ac-Nip-c(Asp-His-D-Phe-Arg-Trp-Gaba-Lys)-NH2
Second: Ac-Nle-c(Asp-His-D-Phe-Arg-D-Trp-Gaba-Lys)-NH2
The “purity (crude or final not stated)” value of the first is lower: 98.9% for the first, 99% for the second.

Going from “Ac-Nle-c(Asp-His-D-Phe-Arg-Trp-Gaba-Lys)-NH2” to “Ac-Nle-c(Cys-3-Pal-D-Phe-Arg-Trp-Gaba-Cys)-NH2”, the “purity (crude or final not stated)” value rises from 91.5% to 96.6%.

“Ac-Nle-c(Cys-Gaba-His-D-Phe-Arg-Trp-Cys)-NH2” and “Ac-Nle-c(Cys-Gaba-His-D-Phe-Arg-Trp-D-Cys)-NH2” are the same in “purity (crude or final not stated)” value: 93% for the first, 93% for the second.

Compared with “Ac-Nle-c(Cys-His-D-Phe-Arg-D-Trp-Gaba-Cys)-NH2”, “Ac-Nle-c(D-Cys-Gaba-His-D-Phe-Arg-Trp-Cys)-NH2” is lower in “purity (crude or final not stated)” value: 97% for the first, 94% for the second.

First: Ac-Nle-c(D-Cys-Gaba-His-D-Phe-Arg-Trp-D-Cys)-NH2
Second: Ac-Oic-c(Asp-His-D-Phe-Arg-Trp-Gaba-Lys)-NH2
The “purity (crude or final not stated)” value of the first is lower: 90% for the first, 97.5% for the second.

First: Ac-RCH[dF]RW[GABA][Pen]-NH2 (disulfide 2-8)
Second: Ac-VCH[dF]RW[GABA]C-NH2 (disulfide 2-8)
The “purity (crude or final not stated)” value of the first is higher: 99% for the first, 95.4% for the second.

Compared with “Ac-[2Nal]CH[dF]RW[GABA]C-NH2 (disulfide 2-8)”, “Ac-[Cha]CH[dF]RW[GABA]C-NH2 (disulfide 2-8)” is higher in “purity (crude or final not stated)” value: 95.2% for the first, 95.8% for the second.

Compared with “Ac-[Nle]CHFR[dW][GABA]C-NH2 (disulfide 2-8)”, “Ac-[Nle]CH[d2Nal]RW[GABA]C-NH2 (disulfide 2-8)” is higher in “purity (crude or final not stated)” value: 95.8% for the first, 99.99% for the second.

Compared with “Ac-[Nle]CH[dF]RW[GABA][Pen]-NH2 (disulfide 2-8)”, “Ac-[Nle][Pen]H[dF]RW[GABA]C-NH2 (disulfide 2-8)” is lower in “purity (crude or final not stated)” value: 99.9% for the first, 95% for the second.

“Ac-[Nle][Pen]H[dF]RW[GABA][Pen]-NH2 (disulfide 2-8)” and “Ac-[dR]CH[dF]RW[GABA][Pen]-NH2 (disulfide 2-8)” are the same in “purity (crude or final not stated)” value: 99.9% for the first, 99.9% for the second.

“Ac-hCha-c(Asp-His-D-Phe-Arg-Trp-Gaba-Lys)-NH2” and “Ac-hLeu-c(Asp-His-D-Phe-Arg-Trp-Gaba-Lys)-NH2” are the same in “purity (crude or final not stated)” value: 99% for the first, 99% for the second.

Going from “Ac-hPhe-c(Asp-His-D-2-Nal-Arg-Trp-Gaba-Lys)-NH2” to “Ac-hPhe-c(Asp-His-D-Phe-Arg-Trp-Gaba-Lys)-NH2”, the “purity (crude or final not stated)” value falls from 99% to 70%.

First: Ac-hPro-c(Asp-His-D-Phe-Arg-Trp-Gaba-Lys)-NH2
Second: Ac-β-hMet-c(Asp-His-D-Phe-Arg-Trp-Gaba-Lys)-NH2
The “purity (crude or final not stated)” value of the first is higher: 99% for the first, 89% for the second.

First: FCH[dF]RW[GABA]C-NH2 (disulfide 2-8)
Second: [Nle]CH[dF]RW[GABA]C-NH2 (disulfide 2-8)
The “purity (crude or final not stated)” value of the first is lower: 95.8% for the first, 97.6% for the second.

Compared with “[dF]CH[dF]RW[GABA][dC]T-NH2 (disulfide 2-8)”, “n-Butyryl-Cha-c(Asp-His-D-Phe-Arg-Trp-Gaba-Lys)-NH2” is lower in “purity (crude or final not stated)” value: 99% for the first, 88.6% for the second.

Assay: Fmoc solid-phase peptide synthesis; Rink Amide MBHA; DIC/HOBt, double-coupling with HBTU/HOBt/DIEA; HBTU/DIEA (Boc)
Details: whole synthesis, scale 0.035 mmol

Substance “Ac-Nle-c(Cys-D-Ala-His-D-Phe-Arg-Trp-Cys)-NH2” has an isolated mass of 10.3 mg.

With “Ac-Nle-c(Cys-D-Ala-His-D-Phe-Arg-Trp-Cys)-NH2” the isolated yield was 27% yield.

Assay: general procedure: Fmoc solid-phase peptide synthesis; Rink Amide MBHA resin (0.58 mmol/g); MBHA resin (0.91 mmol/g) for Boc; Wang resin for C-terminal acids; DIC/HOBt, double-coupling with HBTU/HOBt/DIEA; HBTU/DIEA (Boc)
Details: whole synthesis, analytical HPLC, scale of the general procedure 0.035 mmol, 0.20 mmol (Boc)

For “Ac-Arg-c(Cys-D-Ala-His-D-2-Nal-Arg-Trp-Cys)-NH2”, the “purity (crude or final not stated)” value was 99.9%.

In the case of “Ac-Nle-c(Cys-D-Ala-His-D-Phe-Arg-Trp-Cys)-NH2”, the “final HPLC purity” value is reported as “approximately 88%”.
